One sequence from article PMC4057782 can be followed below.

Protein sequences, listed by entry. Tags and fused reporters are not part of them. Lines headed by an entry give the natural chain unless they say otherwise; changes in a name come on top.
UniProt P49591: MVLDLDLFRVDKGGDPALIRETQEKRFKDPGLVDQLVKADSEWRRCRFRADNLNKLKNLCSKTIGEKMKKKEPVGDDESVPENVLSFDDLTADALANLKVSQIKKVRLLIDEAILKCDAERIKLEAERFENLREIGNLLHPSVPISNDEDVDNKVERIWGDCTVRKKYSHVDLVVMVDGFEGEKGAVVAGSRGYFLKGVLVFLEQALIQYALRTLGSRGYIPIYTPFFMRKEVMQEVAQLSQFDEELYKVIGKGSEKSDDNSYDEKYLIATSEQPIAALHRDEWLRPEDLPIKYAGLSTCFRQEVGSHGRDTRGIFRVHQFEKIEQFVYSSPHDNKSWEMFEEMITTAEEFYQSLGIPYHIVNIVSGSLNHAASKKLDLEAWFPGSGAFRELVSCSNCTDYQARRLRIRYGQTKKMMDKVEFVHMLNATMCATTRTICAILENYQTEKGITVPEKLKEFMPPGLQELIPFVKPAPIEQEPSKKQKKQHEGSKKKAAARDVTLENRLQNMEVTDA

Series [1] has as its system SerRS delta UNE-S (Homo sapiens). Nature of the series: EMSA. Conditions: dramatically weakened or abolished; EMSA: 20 mM Tris-HCl pH 8.0, 60 mM KCl, 5 mM MgCl2, 0.1 mg/ml BSA, 10 ng/ul poly(dG-dC), 1 mM DTT, 30 min, room temperature; recombinant protein; label: 5' 32P; letters put together from the description.
The target of series [2] is SerRS delta TBD (Homo sapiens) (UniProt P49591). The series can be described thus: EMSA. Conditions: dramatically weakened or abolished; EMSA: 20 mM Tris-HCl pH 8.0, 60 mM KCl, 5 mM MgCl2, 0.1 mg/ml BSA, 10 ng/ul poly(dG-dC), 1 mM DTT, 30 min, room temperature; recombinant protein; label: 5' 32P; letters put together from the description.

The exact form of at least one protein or probe is not confirmed. Weaker means in comparison with the reference protein, sequence or condition of that experiment. At least one verdict was read from the data and is not stated in words by the source.

For “GGCGGGGCGGAGCCATGCGCCCCCCCC (double strand) [VEGFA promoter 27-bp (-62 to -36)]”, the binding result in series [1] and in series [2] was “binds more weakly” in each case.
